Paper PMC3979232

Chains of the proteins cited; added tags and fusions are not shown. Lines headed by an entry give the natural chain unless they say otherwise; changes in a name come on top.
UniProt A2AM29: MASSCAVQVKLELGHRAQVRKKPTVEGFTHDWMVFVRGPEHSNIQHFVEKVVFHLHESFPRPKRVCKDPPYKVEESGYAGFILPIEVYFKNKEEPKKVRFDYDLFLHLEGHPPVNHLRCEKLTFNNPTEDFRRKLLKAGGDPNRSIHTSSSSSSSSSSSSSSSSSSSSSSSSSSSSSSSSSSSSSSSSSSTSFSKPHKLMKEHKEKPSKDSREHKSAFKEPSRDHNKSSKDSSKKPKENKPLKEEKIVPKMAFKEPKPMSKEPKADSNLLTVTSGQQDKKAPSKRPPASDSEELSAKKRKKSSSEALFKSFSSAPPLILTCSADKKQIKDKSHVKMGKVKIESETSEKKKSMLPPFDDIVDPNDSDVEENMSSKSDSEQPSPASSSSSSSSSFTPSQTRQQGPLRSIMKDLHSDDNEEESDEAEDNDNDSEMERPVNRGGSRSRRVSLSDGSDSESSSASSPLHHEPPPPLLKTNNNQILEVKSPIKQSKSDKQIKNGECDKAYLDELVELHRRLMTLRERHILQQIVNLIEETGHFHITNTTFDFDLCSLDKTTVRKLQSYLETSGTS
UniProt Q9CQJ4: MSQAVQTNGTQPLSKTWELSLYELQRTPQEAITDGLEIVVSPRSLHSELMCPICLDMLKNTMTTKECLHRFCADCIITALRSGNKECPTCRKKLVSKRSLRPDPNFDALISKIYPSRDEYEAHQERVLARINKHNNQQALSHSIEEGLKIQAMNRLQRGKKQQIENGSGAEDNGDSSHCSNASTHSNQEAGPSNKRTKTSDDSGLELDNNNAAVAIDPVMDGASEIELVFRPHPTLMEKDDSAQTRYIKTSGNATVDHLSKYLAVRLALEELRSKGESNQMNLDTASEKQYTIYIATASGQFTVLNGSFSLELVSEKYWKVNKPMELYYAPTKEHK

Target: GST–Af9-(397–557) fusion protein (UniProt A2AM29)
Experiment: pull-down; bead-bound (glutathione-Sepharose 4B) GST or GST–Af9-(397–557) incubated with in vitro translated full-length Rnf2 overnight at 4°C in 20 mM Tris pH 8.0, 150 mM KCl, 1 mM EDTA, 4 mM MgCl2, 0.2% Nonidet P40, 10% glycerol; immunoblot with anti-Rnf2 antibody; only the target purified

in vitro translated full-length Rnf2 (from UniProt Q9CQJ4 1-336)
binding: binds

No constants are given. Whether binding was seen depends on the method and setting. In cells and extracts the contact can be indirect. Binding can be weak; no strength is given.
